Reference: PubChem BioAssay AID493014 (National Center for Advancing Translational Sciences (NCATS), 2011)
This is one part of the list. The main result of the screen is listed elsewhere. These columns were measured beside it and carry no call. Most of these compounds were active or inconclusive in the main read-out, so they are no random draw. The note in brackets gives the kind of curve behind each potency; many fits are weak.

Assay: qHTS Assay to Find Inhibitors of Chronic Active B-Cell Receptor Signaling
Conditions: ABC-DLBCL IkBa-CBG/CBR reporter, luminescence ratio (green luciferase fused to IkBa over red control in TMD8 lymphoma cells), 4 h
Method in brief: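 Concentration-response series (up to 46 uM) were applied to TMD8 dual-reporter cells for 4 h at 37C with doxycycline. Green/red ratio, after filter-overlap correction, defined %Activity; red signal alone was normalised to basal cells and zero luminescence.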

[1] = measured here: CBR red luminescence, cell number
[2] = measured here: IkBa-CBG green luminescence

CC(=O)OCC(=O)[C@@]1(O)[C@H](C)C[C@H]2[C@@H]3CCC4=CC(=O)C=C[C@]4(C)[C@@]3(F)[C@@H](O)C[C@@]21C
AC50 [1]: 14.6 µM [rising, partial curve, poor fit]

COc1cc(C(=O)Nc2ccccc2N2CCN(S(C)(=O)=O)CC2)cc(OC)c1OC
AC50 [1]: 7.08 µM [rising, partial curve, poor fit]

COC(=O)c1cccc(Cn2nc(C)c([N+](=O)[O-])c2C)c1
AC50 [1]: 35.5 µM [rising, single point]

O=c1c2ccccc2nc(-c2ccccc2)n1CCCN1CCOCC1
AC50 [1]: 4.11 µM [falling, partial curve, poor fit]

NC(=O)c1cc(NC(=O)CCc2nc3ccccc3s2)cc(C(N)=O)c1
AC50 [1]: 11.2 µM [falling, single point]

CCOC(=O)c1ccc(S(=O)(=O)N2CCN(CC(=O)NC(=O)NC(C)(C)C)CC2)cc1
AC50 [1]: 0.366 µM [rising, partial curve, poor fit]

Cc1ccc(CNC(=O)CSCc2ccccc2C)cc1
AC50 [1]: 0.794 µM [rising, full curve, poor fit]

Cc1ccc(NC(=O)c2ccc(NCCN)c([N+](=O)[O-])c2)cc1
AC50 [1]: 18.4 µM [falling, partial curve]

CC(C)=CCC/C(C)=C/CNC(=O)C[C@H]1C[C@H](C(=O)N2CCOCC2)[C@@]2(C)c3[nH]c4cc(-c5ccco5)ccc4c3CCN2C1=O
AC50 [1]: 20.6 µM [falling, partial curve, poor fit]

Cc1cc(C)c2c(c1)C1C=CCC1C(c1ccc(S(=O)(=O)N3CCOCC3)cc1)N2 (stereo not given)
AC50 [1]: 22.4 µM [falling, single point]

CCOC(=O)C1CCN(C(=O)/C=C/c2cc(OC)c(OC)c(OC)c2)CC1
AC50 [1]: 16.4 µM [rising, partial curve]

Cc1ccsc1C(=O)OCC(=O)Nc1cccc(F)c1
AC50 [1]: 14.6 µM [rising, partial curve, poor fit]

COc1ccc(N2C(N)=C(C#N)C(c3cccnc3)C3=C2CC(C)(C)CC3=O)cc1 (stereo not given)
AC50 [1]: 0.82 µM [rising, full curve, poor fit]

Cc1nc2cc(NC(=O)NCCC3=CCCCC3)ccc2o1
AC50 [1]: 10.3 µM [rising, partial curve, poor fit]

COc1ccccc1NC(=O)CSc1nc2n[nH]c(C)c2c(=N)n1-c1ccccc1Cl
AC50 [1]: 29.1 µM [falling, single point]

CCOc1ccc2c(c1)C(c1ccccc1)=NNC(c1ccccc1)=N2
AC50 [1]: 9.2 µM [falling, partial curve]

O=C(NCCc1ccccc1)c1ccc([N+](=O)[O-])cc1
AC50 [1]: 35.5 µM [falling, single point]

COc1cccc(/C=N/NC(=S)Nc2cccc(C(=O)O)c2)c1O
AC50 [1]: 4.47 µM [falling, full curve]

CN(c1ccccc1)S(=O)(=O)c1cccc(NC(=O)c2cncc(Br)c2)c1
AC50 [1]: 35.5 µM [falling, single point]

CN1CCN(C(=O)c2ccc3c(Cl)c4c(nc3c2)CCCC4)CC1
AC50 [1]: 7.08 µM [falling, partial curve]

COc1cccc(C(=O)NCc2ccc(-c3nc4ccccc4s3)cc2)c1
AC50 [1]: 29.1 µM [rising, single point]

COc1ccccc1-n1c(CNC(=O)c2cccc([N+](=O)[O-])c2C)n[nH]c1=S
AC50 [1]: 1.41 µM [falling, full curve]

COc1cccc2cc(C(=O)NCc3ccc(C)cc3)c(=O)oc12
AC50 [1]: 12.6 µM [falling, partial curve]

CCc1ccc(NC(=O)C2C3/C=C\CCCCC32)cc1 (stereo not given)
AC50 [1]: 0.82 µM [rising, full curve, poor fit]

O=C(CC1N=C2c3ccccc3N=C(SCc3ccccc3F)N2C1=O)NCCc1ccccc1 (stereo not given)
AC50 [1]: 35.5 µM [falling, single point]

O=C(CSc1nc2ncc(Br)cc2[nH]1)Nc1ccccc1-c1ccccc1
AC50 [1]: 11.2 µM [falling, partial curve, poor fit]

O=C(CCN1CCCCC1)c1ccccc1
AC50 [1]: 20.6 µM [rising, single point]

CCC(CC)c1nnc(NC(=O)C2COc3ccccc3O2)s1 (stereo not given)
AC50 [1]: 3.55 µM [rising, partial curve, poor fit]

Clc1ccc(NCc2nnc3n2CCCCC3)cc1
AC50 [1]: 6.51 µM [rising, single point]

COc1ccc(NC(=O)c2ccccc2NS(C)(=O)=O)cc1OC
AC50 [1]: 29.1 µM [falling, single point]

CCC(C)n1cnc2c(c1=O)c1nc3ccccc3nc1n2Cc1ccc(OC)cc1 (stereo not given)
AC50 [1]: 35.5 µM [falling, single point]

Nc1nn2c(C(F)(F)F)cc(=O)[nH]c2c1N=Nc1cccc(F)c1
AC50 [1]: 0.251 µM [falling, full curve]

O=C(N/N=C\c1ccncc1)c1ccc(Cl)s1
AC50 [1]: 12.6 µM [falling, partial curve]

COc1ccc(C(=O)NC(=S)NC2CCSC2=O)cc1 (stereo not given)
AC50 [2]: 20.6 µM [falling, single point]

N#Cc1cc(NC2CCCC2)c([N+](=O)[O-])cc1C#N
AC50 [1]: 6.51 µM [rising, partial curve]

COC(=O)c1cccc(NC(=O)CSc2ncn[nH]2)c1
AC50 [1]: 13 µM [falling, partial curve, poor fit]

Cc1cccc(/C(N)=N/OC(=O)COc2ccc(Cl)c(C)c2)c1
AC50 [1]: 29.1 µM [rising, single point]

CSc1oc(-c2ccccc2)nc1S(=O)(=O)c1ccc(F)cc1
AC50 [1]: 12.6 µM [falling, partial curve, poor fit]

CCS(=O)(=O)Nc1ccc(C(=O)c2ccccc2)cc1
AC50 [1]: 29.1 µM [falling, single point]

Cc1ccc(-n2nc3c(SCCN4CCOCC4)nnc(C)c3c2C)cc1
AC50 [1]: 18.4 µM [falling, single point]

Cc1cccn2c(=O)c3cc(C(=O)N4CCN(Cc5ccccc5)CC4)sc3nc12
AC50 [1]: 2.91 µM [rising, single point]

CC(C)(C)c1ccc(C(=O)NC(=O)COC(=O)c2ccco2)cc1
AC50 [1]: 7.31 µM [rising, partial curve, poor fit]

O=C(O)c1ccc2c(c1)c1c3n2CCNC3CCC1 (stereo not given)
AC50 [1]: 17.8 µM [falling, single point]

CCOc1cc(CC(=O)N[C@@H](CC(C)C)c2ccccc2N2CCCCC2)ccc1C(=O)O
AC50 [1]: 17.8 µM [falling, single point]

O=C(COC(=O)CSc1ccc(F)cc1)NNC(=O)c1ccc([N+](=O)[O-])cc1
AC50 [1]: 0.082 µM [rising, full curve, poor fit]

O=C1c2ccccc2NC(c2ccc(-c3ccc(F)cc3)o2)N1O (stereo not given)
AC50 [1]: 29.1 µM [falling, single point]

O=C(Nc1ccc(N2CCOCC2)nc1)c1cccs1
AC50 [1]: 10 µM [falling, partial curve]

COc1cccc(C(=O)NNC(=O)Cc2ccc(Cl)cc2)c1
AC50 [1]: 7.31 µM [falling, partial curve, poor fit]

Cc1ccc(S(=O)(=O)N(C)C)cc1NC(=O)c1ccccc1SCC(=O)N1CCCC1
AC50 [1]: 23.1 µM [rising, partial curve, poor fit]

Cc1ccsc1/C=N/NC(=O)c1sccc1C
AC50 [1]: 0.447 µM [falling, full curve, poor fit]

COc1ccc(NC(=O)C(C)Oc2ccc(/C(C)=N\O)cc2)cc1 (stereo not given)
AC50 [1]: 25.9 µM [falling, single point]

COc1ccccc1-c1ccc(SCc2ccc(F)cc2)nn1
AC50 [1]: 10 µM [falling, partial curve]

COC(=O)[C@@H](Cc1c[nH]c2ccccc12)NC(=O)C1CCCN(S(=O)(=O)c2ccc(C)cc2)C1 (stereo not given in full)
AC50 [1]: 25.1 µM [falling, single point]

Cc1cccc(-c2nnc(SCC(=O)N3CCCC3)o2)c1
AC50 [1]: 12.6 µM [falling, partial curve, poor fit]

Clc1ccc(OCCCn2ccnc2)c(Br)c1
AC50 [1]: 0.184 µM [rising, full curve]

Cc1ccc(-n2ncc3c(=O)[nH]c(SCC(=O)N4CCC(C)CC4)nc32)cc1C
AC50 [1]: 0.13 µM [rising, full curve, poor fit]

COc1cc(NC(=O)c2cc3ccccc3cc2O)c(OC)cc1Cl
AC50 [1]: 0.0891 µM [rising, full curve, poor fit]

COc1ccccc1CNC(=S)Nc1ccc2nc(N3CCN(C)CC3)cc(C)c2c1
AC50 [1]: 2.82 µM [falling, full curve, poor fit]

N#Cc1cc2c(nc1SCC1COc3ccccc3O1)CCC2 (stereo not given)
AC50 [1]: 7.94 µM [rising, partial curve]

CCn1c(-c2csc3ccccc23)n[nH]c1=S
AC50 [1]: 11.6 µM [falling, partial curve]

O=c1[nH]c(COc2ccc(Cl)cc2Br)nc2ccccc12
AC50 [1]: 6.31 µM [rising, single point]

Cn1c(N/N=C/c2cc3ccccc3nc2Cl)nc2ccccc21
AC50 [1]: 29.1 µM [falling, single point]
AC50 [2]: 29.1 µM [falling, single point]

N#CC1(NC(=O)COC(=O)CCN=C2NS(=O)(=O)c3ccccc32)CCCCC1
AC50 [1]: 3.55 µM [rising, partial curve, poor fit]

CCCCCCOc1ccc(N2C(=O)CC(SCCN)C2=O)cc1 (stereo not given)
AC50 [1]: 20 µM [rising, partial curve, poor fit]
